# Reference: patent US20260217822A1
# By UniProt entry, the sequences of proteins in these tests, tags left out. Residues count along the entry.
# UniProt P15391, residues 20-291: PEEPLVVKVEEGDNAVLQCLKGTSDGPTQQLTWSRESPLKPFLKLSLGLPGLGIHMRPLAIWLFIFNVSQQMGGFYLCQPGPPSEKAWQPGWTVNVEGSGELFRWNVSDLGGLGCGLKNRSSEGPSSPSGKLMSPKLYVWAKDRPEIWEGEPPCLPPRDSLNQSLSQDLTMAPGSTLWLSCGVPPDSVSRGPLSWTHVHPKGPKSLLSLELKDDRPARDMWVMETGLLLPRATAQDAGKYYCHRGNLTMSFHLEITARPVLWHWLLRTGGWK
# Results are given in words; binding and its absence hold for the method and conditions named. Some entries that bind do so weakly or less than the wild type.
# B1: CD19 Binder 1 (scFv, V domains shown)
# VH: EVQLVESGGGLIQPGGSLRLSCAASGFTVSSNYMSWVRQAPGKGLEWVSVIYSGGSTYYADSVKGRFTISRDNSKNTLYLQMNSLRAEDTAVYYCARDGGLDTLYGMDVWGQGTTVTVSS
# VL: QSVVTQPPSVSGAPGQRVTISCTGSSSNIGAGYDVHWYQQLPGTAPKLLIYGNSNRPSGVPDRFSGSKSGTSASLAITGLQAEDEADYYCQSYDSSLSGSYVFGTGTKVTVL
# B2: CD19 Binder 2 (scFv, V domains shown)
# VH: EVHLVESGGGLVQPGGSLRLSCAASGFTFSDYYMSWIRQAPGKGLEWVSYISSSGSTTYYADSVKGRFTISRDNAKNSLYLQMNSLRAEDTAVYYCARVEGWSLLDYWGQGTLVTVSS
# VL: QSVLTQPPSVSAAPGQKVTMSCSGSSSNIGNNYVSWYQQLPGTAPKLLIYDNNKRPSGIPDRFSGSKSGTSATLGITGLQTGDEADYYCGTWDSSLGAVVFGGGTKVTVL
# B3: CD19 Binder 3 (scFv, V domains shown)
# VH: EVQLVQSGAEVKKPGESLKISCKGSGYSFTSYWIGWVRQMPGKGLEWMGIIYPGDSDTRYSPSFQGQVTISADKSISTAYLQWSSLKASDTAMYYCARLPFVGATTGGFDYWGQGTLVTVSS
# VL: QSVVTQPASVSGSPGQSITISCTGTSSDVGGYNYVSWYQQHPGKAPKLVIYEVSNRPSGVSNRFSGSKSGNTASLTISGLQAEDEADYYCSSYTSSSTLVFGGGTKLTVL
# Biological target: recombinant CD19 (UniProt P15391)
# Experiment: ELISA on recombinant CD19, OD at 405 nm against antibody concentration
row,Binder,binding
1,B1,binds
2,B2,binds
3,B3,binds

# Biological target: recombinant CD19 (UniProt P15391)
# Experiment: ELISA on recombinant CD19
row,Binder,binding
1,B1,binds
2,B2,binds
3,B3,binds
